Results are given in words; binding and its absence hold for the method and conditions named. Some results given as binding are weak or reduced against the parent protein; the word gives no strength.
What was measured:
Experiment in all cases: co-expression and co-purification (anti-FLAG M2, anti-HA, Superose 6); subunits co-expressed in insect cells; purified through M2 beads (f:MED14 derivative), HA beads (HA:MED7) and Superose 6; SDS-PAGE
[1] = biological target: f:MED14 (1-1455 aa), full-length FLAG-tagged MED14 (human) (UniProt O60244)
[2] = biological target: f:MED14-CTD (754-1455 aa), FLAG-tagged C-terminal half of MED14 (human) (UniProt O60244)
[3] = biological target: f:MED14-NTD (1-760 aa), FLAG-tagged N-terminal half of MED14 (human) (UniProt O60244)

Chains of the proteins cited; added tags and fusions are not shown. Lines headed by an entry give the natural chain unless they say otherwise; changes in a name come on top. A line that says so, or that is headed by a name, gives the form on record, which may keep a tag or linker. Residues count along the entry.
UniProt O60244: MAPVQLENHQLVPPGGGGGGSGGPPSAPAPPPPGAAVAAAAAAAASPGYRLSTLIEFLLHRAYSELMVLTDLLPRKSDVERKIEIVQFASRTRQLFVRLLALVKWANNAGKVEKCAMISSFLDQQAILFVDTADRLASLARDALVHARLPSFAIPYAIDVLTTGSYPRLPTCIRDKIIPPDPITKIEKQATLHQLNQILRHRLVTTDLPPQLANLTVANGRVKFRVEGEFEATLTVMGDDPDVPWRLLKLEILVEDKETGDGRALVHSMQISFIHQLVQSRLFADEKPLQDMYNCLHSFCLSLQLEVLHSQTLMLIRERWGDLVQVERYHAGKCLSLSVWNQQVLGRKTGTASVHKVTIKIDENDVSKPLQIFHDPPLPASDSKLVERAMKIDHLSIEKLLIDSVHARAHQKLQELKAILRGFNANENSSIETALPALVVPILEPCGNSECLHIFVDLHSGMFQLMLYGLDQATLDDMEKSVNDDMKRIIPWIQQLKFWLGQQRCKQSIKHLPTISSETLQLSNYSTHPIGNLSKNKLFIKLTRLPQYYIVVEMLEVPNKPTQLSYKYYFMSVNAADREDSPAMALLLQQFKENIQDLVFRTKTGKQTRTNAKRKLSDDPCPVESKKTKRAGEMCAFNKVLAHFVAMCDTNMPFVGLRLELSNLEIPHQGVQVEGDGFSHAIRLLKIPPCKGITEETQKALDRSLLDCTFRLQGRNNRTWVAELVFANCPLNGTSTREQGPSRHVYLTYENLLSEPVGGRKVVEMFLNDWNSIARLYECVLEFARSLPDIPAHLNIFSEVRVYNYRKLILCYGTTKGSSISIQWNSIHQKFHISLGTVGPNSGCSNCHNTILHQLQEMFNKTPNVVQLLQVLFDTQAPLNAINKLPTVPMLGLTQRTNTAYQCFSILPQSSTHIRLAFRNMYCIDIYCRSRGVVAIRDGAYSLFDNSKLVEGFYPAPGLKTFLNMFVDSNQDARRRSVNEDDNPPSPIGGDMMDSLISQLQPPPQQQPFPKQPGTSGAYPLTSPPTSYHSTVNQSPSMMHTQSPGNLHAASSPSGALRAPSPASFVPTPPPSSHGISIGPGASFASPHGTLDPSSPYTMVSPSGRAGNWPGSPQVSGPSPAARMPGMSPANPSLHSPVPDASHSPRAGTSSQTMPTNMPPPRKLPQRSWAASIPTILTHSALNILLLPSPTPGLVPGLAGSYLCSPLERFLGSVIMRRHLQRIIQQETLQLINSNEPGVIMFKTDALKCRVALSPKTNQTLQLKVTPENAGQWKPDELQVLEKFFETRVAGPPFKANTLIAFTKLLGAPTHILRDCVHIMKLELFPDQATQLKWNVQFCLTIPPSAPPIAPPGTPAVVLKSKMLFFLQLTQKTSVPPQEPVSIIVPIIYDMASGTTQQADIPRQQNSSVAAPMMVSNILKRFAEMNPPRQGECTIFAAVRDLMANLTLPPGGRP
f:MED14-NTD (1-760 aa), FLAG-tagged N-terminal half of MED14: residues 1-760 of O60244
f:MED14-CTD (754-1455 aa), FLAG-tagged C-terminal half of MED14: residues 754-1454 of O60244
UniProt Q9NVC6: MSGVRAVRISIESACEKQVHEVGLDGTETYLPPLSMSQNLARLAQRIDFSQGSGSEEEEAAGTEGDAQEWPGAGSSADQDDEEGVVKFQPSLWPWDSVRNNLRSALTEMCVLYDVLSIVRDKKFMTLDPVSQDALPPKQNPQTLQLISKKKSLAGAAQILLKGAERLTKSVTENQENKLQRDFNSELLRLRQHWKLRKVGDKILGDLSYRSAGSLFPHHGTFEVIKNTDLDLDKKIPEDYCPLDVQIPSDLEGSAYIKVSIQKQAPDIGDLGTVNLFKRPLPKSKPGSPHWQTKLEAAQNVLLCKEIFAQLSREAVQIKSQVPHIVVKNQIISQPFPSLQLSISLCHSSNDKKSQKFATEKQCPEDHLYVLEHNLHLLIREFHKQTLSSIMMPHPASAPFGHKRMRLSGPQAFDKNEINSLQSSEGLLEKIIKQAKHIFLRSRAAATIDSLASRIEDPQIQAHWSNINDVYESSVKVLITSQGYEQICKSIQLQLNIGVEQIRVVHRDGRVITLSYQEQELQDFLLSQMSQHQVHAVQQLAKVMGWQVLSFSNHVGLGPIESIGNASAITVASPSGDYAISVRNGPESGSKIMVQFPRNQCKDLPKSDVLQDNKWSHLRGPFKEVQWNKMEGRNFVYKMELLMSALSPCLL

binding [1]: binds
binding [2]: binds
binding [3]: binds
Substance: H+M+MED26, head + middle modules with MED26 (from UniProt Q9NVC6 1-651; Q96G25 1-268; A0JLT2 1-244; O75586 1-246; Q15528 1-200; Q9P086 1-117; Q96HR3 1-178; Q9H944 1-212; Q9BUE0 1-208; O43513 1-233; Q9Y3C7 1-131; Q9BTT4 1-135; Q9NPJ6 1-270; Q13503 1-144; O95402 1-600) (complex)

From article PMC12719649
